Assay results reported in publication PMC8004969.
Positions count from the first letter of the chain named. These are yes or no findings as the source states them, for the method shown. For part of these data: Where a sequence is shown, tags or fusion partners need not be part of it. Blank lines part the entries; values can stand above or below the binder they belong to.

Experiments:
Experiment in all cases: SEC; Superdex 200 10/300 GL, 20 mM Tris-HCl buffer (pH 6.8 or 8.0), no salt, 0.5 mL/min; 75-100 µg ALOX protein in 100 µL (10-13 µM); hydrodynamic radius estimated with calibration proteins; self-association, monomer against dimer; both purified
[1] = target: wild-type rabbit ALOX15 (rabbit) (UniProt P12530)
[2] = target: rabbit ALOX15 His585Lys mutant (rabbit) (UniProt P12530)
[3] = target: rabbit ALOX15 His585Glu mutant (rabbit) (UniProt P12530)

binding [1]: no binding (tested: 10–13 µM)
B1: wild-type rabbit ALOX15 (enzyme, UniProt P12530 2-663)
chain: GVYRVCVSTGASIYAGSKNKVELWLVGQHGEVELGSCLRPTRNKEEEFKVNVSKYLGSLLFVRLRKKHFLKEDAWFCNWISVQALGAAEDKYWFPCYRWVVGDGVQSLPVGTGCTTVGDPQGLFQKHREQELEERRKLYQWGSWKEGLILNVAGSKLTDLPVDERFLEDKKIDFEASLAWGLAELALKNSLNILAPWKTLDDFNRIFWCGRSKLARRVRDSWQEDSLFGYQFLNGANPMLLRRSVQLPARLVFPPGMEELQAQLEKELKAGTLFEADFALLDNIKANVILYCQQYLAAPLVMLKLQPDGKLMPMVIQLHLPKIGSSPPPLFLPTDPPMVWLLAKCWVRSSDFQVHELNSHLLRGHLMAEVFTVATMRCLPSIHPVFKLIVPHLRYTLEINVRARNGLVSDFGIFDQIMSTGGGGHVQLLQQAGAFLTYRSFCPPDDLADRGLLGVESSFYAQDALRLWEIISRYVQGIMGLYYKTDEAVRDDLELQSWCREITEIGLQGAQKQGFPTSLQSVAQACHFVTMCIFTCTGQHSSIHLGQLDWFTWVPNAPCTMRLPPPTTKDATLETVMATLPNLHQSSLQMSIVWQLGRDQPIMVPLGQHQEEYFSGPEPRAVLEKFREELAIMDKEIEVRNEKLDIPYEYLRPSIVENSVAI

binding [2]: no binding (tested: 10–13 µM)
B2: rabbit ALOX15 His585Lys mutant (enzyme, UniProt P12530 2-663)
chain: B1 chain with H584K

binding [3]: no binding (tested: 10–13 µM)
B3: rabbit ALOX15 His585Glu mutant (enzyme, UniProt P12530 2-663)
chain: B1 chain with H584E
